Source: paper PMC7862700
The entries are a selection whose mix differs from that of the whole data set. At the low end of the ranking the order means little.

Assays:
Assay in all cases: DAPPL (digital affinity profiling via proximity ligation, sequencing)
Conditions in all cases: 10 mM Tris-HCl pH 7.5, 50 mM NaCl, 1 mM DTT, 4% glycerol, room temperature, 30 min; GST-TFs on glutathione beads, 16-mer random dsDNA library, 0.1% …; high values mean tight binding; double strand, one strand shown; scale: fold enrichment (6-mer frequency, TF over GST control)
ELK1 = target: T1, ELK1 (UniProt P19419)
T1 sequence: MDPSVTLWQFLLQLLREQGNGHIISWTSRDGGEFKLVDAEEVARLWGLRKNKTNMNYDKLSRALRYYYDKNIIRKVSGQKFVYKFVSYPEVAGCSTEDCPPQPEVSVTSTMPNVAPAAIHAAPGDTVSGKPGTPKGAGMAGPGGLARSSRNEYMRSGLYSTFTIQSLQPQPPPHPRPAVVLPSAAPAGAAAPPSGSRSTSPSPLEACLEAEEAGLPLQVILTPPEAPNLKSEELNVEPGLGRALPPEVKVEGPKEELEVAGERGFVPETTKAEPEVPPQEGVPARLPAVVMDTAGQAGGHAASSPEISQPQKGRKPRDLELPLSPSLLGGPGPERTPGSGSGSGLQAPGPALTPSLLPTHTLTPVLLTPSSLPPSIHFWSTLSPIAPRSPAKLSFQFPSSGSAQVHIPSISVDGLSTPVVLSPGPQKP

ELK3 = target: T2, ELK3 (UniProt P41970)
T2 sequence: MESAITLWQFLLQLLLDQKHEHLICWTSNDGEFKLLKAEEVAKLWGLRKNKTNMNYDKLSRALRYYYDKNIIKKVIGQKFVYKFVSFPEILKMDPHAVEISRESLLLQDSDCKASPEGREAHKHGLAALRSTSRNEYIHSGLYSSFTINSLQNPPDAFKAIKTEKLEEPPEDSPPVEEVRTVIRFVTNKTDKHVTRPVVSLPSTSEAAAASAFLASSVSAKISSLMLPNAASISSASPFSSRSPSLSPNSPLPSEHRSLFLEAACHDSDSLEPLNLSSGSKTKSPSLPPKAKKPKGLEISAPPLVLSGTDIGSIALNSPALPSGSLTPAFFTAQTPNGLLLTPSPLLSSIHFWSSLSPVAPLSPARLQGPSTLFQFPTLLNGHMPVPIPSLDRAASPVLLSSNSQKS

SPIC = target: T3, SPIC (UniProt Q8N5J4)
T3 sequence: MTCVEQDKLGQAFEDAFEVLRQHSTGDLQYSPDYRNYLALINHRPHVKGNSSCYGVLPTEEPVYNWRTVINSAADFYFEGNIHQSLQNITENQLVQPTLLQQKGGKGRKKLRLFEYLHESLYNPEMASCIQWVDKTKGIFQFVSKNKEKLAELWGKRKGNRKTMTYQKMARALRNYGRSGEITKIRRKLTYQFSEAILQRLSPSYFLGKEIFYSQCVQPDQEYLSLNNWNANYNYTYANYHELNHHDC

ETS2 = target: T4, ETS2 (UniProt P15036)
T4 sequence: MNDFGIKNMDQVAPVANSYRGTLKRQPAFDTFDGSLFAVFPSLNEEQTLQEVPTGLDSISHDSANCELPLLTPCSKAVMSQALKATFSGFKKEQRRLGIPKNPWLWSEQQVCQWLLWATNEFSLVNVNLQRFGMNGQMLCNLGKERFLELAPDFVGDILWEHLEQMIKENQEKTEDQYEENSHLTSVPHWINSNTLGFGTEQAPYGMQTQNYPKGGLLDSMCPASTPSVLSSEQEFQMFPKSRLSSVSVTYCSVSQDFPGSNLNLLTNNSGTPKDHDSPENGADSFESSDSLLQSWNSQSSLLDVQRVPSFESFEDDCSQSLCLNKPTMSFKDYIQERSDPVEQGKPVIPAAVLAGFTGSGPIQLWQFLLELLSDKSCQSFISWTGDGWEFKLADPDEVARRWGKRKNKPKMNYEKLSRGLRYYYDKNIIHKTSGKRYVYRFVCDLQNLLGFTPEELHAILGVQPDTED

ETV3 = target: T5, ETV3 (UniProt P41162-2)
T5 sequence: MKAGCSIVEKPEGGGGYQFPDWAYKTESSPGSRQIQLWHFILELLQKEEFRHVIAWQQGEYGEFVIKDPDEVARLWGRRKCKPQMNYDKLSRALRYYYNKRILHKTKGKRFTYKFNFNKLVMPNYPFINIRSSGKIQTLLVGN

Sequence | binding signal (ELK1) | binding signal (ELK3) | binding signal (SPIC) | binding signal (ETS2) | binding signal (ETV3)
AGGCAG | 0.603 | 0.517 | 0.631 | 0.549 | 0.556
ACAGTG | 0.468 | 0.524 | 0.495 | 0.499 | 0.487
CCGTGT | 0.498 | 0.495 | 0.435 | 0.514 | 0.551
GAGAGG | 0.535 | 0.532 | 0.591 | 0.487 | 0.471
GGGTTG | 0.843 | 0.764 | 0.928 | 0.843 | 0.771
CCGGGC | 0.858 | 0.806 | 0.767 | 0.869 | 0.885
GGCAGG | 0.636 | 0.609 | 0.585 | 0.651 | 0.58
TCAGGC | 0.723 | 0.809 | 0.827 | 0.703 | 0.709
GGGACC | 0.729 | 0.649 | 0.643 | 0.65 | 0.631
TCGTAG | 0.885 | 0.631 | 0.899 | 0.858 | 0.807
GGCATC | 0.903 | 0.817 | 0.99 | 0.855 | 0.946
GCACCA | 0.855 | 0.952 | 0.977 | 0.807 | 0.837
GTCGTA | 0.654 | 0.55 | 0.648 | 0.603 | 0.615
AGTAGG | 0.692 | 0.556 | 0.728 | 0.675 | 0.698
GTGACA | 0.794 | 0.769 | 0.736 | 0.809 | 0.757
AGCAAG | 0.895 | 0.894 | 0.831 | 0.932 | 0.871
GGGTCA | 0.708 | 0.775 | 0.701 | 0.683 | 0.705
TGAGGT | 0.638 | 0.585 | 0.642 | 0.635 | 0.675
AAGGAG | 0.341 | 0.365 | 0.376 | 0.347 | 0.343
TGGGGG | 0.741 | 0.915 | 0.838 | 0.761 | 0.699
ACGGTG | 0.587 | 0.544 | 0.532 | 0.561 | 0.554
AAGGGG | 0.908 | 1.05 | 0.945 | 0.93 | 0.92
AGTCGT | 0.411 | 0.426 | 0.393 | 0.427 | 0.405
GGAGGT | 0.335 | 0.315 | 0.288 | 0.359 | 0.364
TACGTG | 0.704 | 0.701 | 0.673 | 0.763 | 0.667

Sequence | binding signal (ELK1) | binding signal (ELK3) | binding signal (SPIC) | binding signal (ETS2) | binding signal (ETV3)
AAGACG | 0.784 | 0.781 | 0.799 | 0.834 | 0.798
GGGGCG | 0.611 | 0.627 | 0.594 | 0.673 | 0.572
CAAGCG | 0.881 | 0.904 | 0.816 | 0.933 | 0.931
GACAGG | 0.614 | 0.568 | 0.562 | 0.576 | 0.565
CGGCAG | 0.826 | 0.914 | 0.889 | 0.83 | 0.768
GCCAGT | 0.316 | 0.288 | 0.288 | 0.311 | 0.313
TCAGGG | 0.921 | 0.653 | 0.812 | 0.908 | 0.753
CAGTTG | 0.484 | 0.474 | 0.52 | 0.447 | 0.491
CAGTAG | 0.625 | 0.581 | 0.661 | 0.592 | 0.576
CCGAGT | 0.928 | 0.979 | 0.96 | 0.913 | 0.924
TGAGGC | 0.49 | 0.481 | 0.427 | 0.441 | 0.468
GGGAGG | 0.316 | 0.341 | 0.346 | 0.312 | 0.318
ACTGAG | 0.773 | 0.745 | 0.828 | 0.723 | 0.781
CGGAGG | 0.259 | 0.294 | 0.233 | 0.28 | 0.285
CAGCGT | 0.816 | 0.84 | 0.79 | 0.819 | 0.857
CGCTGA | 0.875 | 0.843 | 0.911 | 0.759 | 0.945
TCGTGA | 0.344 | 0.31 | 0.298 | 0.34 | 0.333
ATGTGA | 0.642 | 0.625 | 0.638 | 0.64 | 0.642
GACCGT | 0.43 | 0.346 | 0.433 | 0.445 | 0.415
GAGTTA | 0.603 | 0.544 | 0.616 | 0.6 | 0.603
ACGGAG | 0.345 | 0.386 | 0.307 | 0.358 | 0.379
GCGAGC | 0.827 | 0.946 | 0.814 | 0.875 | 0.927
CTCGGA | 0.882 | 0.801 | 0.813 | 0.803 | 0.832
GCGGTG | 0.498 | 0.47 | 0.584 | 0.535 | 0.53
GGCTGT | 0.747 | 0.785 | 0.902 | 0.798 | 0.819
